Experimental data as given in PMC6692485.
No constants are given. Whether binding was seen depends on the method and setting. In cells and extracts the contact can be indirect. Some entries that bind do so weakly or less than the wild type.

The chains behind the UniProt entries cited, without tags or fusion partners.
UniProt O14980: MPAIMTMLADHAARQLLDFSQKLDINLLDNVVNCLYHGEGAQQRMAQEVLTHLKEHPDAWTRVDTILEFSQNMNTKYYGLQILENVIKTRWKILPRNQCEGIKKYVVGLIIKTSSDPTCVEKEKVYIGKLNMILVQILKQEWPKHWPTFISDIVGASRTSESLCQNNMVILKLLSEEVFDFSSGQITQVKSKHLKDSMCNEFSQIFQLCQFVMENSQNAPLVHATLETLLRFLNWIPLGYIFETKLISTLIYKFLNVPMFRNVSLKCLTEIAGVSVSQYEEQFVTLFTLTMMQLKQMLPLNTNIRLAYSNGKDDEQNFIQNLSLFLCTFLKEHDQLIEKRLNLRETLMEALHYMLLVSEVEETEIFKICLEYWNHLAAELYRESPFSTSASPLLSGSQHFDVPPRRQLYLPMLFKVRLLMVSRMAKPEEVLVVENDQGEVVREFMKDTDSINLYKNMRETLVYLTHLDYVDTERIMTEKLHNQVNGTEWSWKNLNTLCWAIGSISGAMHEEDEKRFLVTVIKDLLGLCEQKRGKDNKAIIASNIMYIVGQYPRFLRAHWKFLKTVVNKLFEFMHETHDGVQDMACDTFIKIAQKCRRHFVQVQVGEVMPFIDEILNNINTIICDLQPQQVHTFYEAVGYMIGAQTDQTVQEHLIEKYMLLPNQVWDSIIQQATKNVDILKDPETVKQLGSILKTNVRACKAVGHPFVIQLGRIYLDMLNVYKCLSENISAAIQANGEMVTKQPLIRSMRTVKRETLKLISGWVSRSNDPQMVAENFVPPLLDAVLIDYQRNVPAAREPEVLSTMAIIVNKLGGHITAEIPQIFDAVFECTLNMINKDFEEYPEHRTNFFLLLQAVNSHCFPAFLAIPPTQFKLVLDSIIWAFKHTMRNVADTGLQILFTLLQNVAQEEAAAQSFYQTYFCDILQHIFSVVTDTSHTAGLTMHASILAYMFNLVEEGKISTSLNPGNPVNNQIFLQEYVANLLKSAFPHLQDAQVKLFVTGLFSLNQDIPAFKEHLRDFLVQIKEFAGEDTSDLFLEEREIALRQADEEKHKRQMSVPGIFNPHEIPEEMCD
UniProt P15682: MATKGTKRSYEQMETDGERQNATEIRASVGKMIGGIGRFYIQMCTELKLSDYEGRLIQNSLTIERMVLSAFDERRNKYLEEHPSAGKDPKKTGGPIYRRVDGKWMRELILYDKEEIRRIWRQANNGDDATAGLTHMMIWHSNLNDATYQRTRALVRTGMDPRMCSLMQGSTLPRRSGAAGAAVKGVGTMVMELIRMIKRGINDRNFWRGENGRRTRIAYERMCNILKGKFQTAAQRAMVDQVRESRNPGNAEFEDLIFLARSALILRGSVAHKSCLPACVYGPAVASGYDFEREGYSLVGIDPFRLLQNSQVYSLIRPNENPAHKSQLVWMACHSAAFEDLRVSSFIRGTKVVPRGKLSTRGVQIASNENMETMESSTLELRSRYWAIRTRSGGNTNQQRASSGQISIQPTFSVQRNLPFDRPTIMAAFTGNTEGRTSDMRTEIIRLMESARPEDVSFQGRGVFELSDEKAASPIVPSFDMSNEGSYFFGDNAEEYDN

Biological target: FLAG-CRM1 (cellular export receptor CRM1, Chromosome Region Maintenance protein 1) (UniProt O14980)
Test: co-IP

MYC-NP, wild type (nucleoprotein of influenza virus A/WSN/1933 (H1N1)) (from UniProt P15682 1-498)
binding: binds
